This note sets out measurements from patent publication US11065203B2, “Liposomal compositions and uses of same” (Technion Research & Development Foundation Limited, priority 2009, dated 2021).

This series can be described thus: Proteomics analysis (trypsin digest, LC-MS/MS) of hMSC ghosts and derived CDLs, conditioned or unconditioned by PC3 medium. Particulars: LC-MS/MS peak area per protein; for Ratio of expression Cond. CDLs/Cond. Ghosts: CDLs derived from conditioned hMSCs versus conditioned ghosts; for Ratio of expression Cond Ghosts/Ghosts: hMSC ghosts conditioned by PC3 medium versus unconditioned ghosts. The arrangement: species or system human.

B1: P50416 (protein, UniProt P50416 1-773, looked up)
chain: MAEAHQAVAFQFTVTPDGIDLRLSHEALRQIYLSGLHSWKKKFIRFKNGIITGVYPASPSSWLIVVVGVMTTMYAKIDPSLGIIAKINRTLETANCMSSQTKNVVSGVLFGTGLWVALIVTMRYSLKVLLSYHGWMFTEHGKMSRATKIWMGMVKIFSGRKPMLYSFQTSLPRLPVPAVKDTVNRYLQSVRPLMKEEDFKRMTALAQDFAVGLGPRLQWYLKLKSWWATNYVSDWWEEYIYLRGRGPLMVNSNYYAMDLLYILPTHIQAARAGNAIHAILLYRRKLDREEIKPIRLLGSTIPLCSAQWERMFNTSRIPGEETDTIQHMRDSKHIVVYHRGRYFKVWLYHDGRLLKPREMEQQMQRILDNTSEPQPGEARLAALTAGDRVPWARCRQAYFGRGKNKQSLDAVEKAAFFVTLDETEEGYRSEDPDTSMDSYAKSLLHGRCYDRWFDKSFTFVVFKNGKMGLNAEHSWADAPIVAHLWEYVMSIDSLQLGYAEDGHCKGDINPNIPYPTRLQWDIPGECQEVIETSLNTANLLANDVDFHSFPFVAFGKGIIKKCRTSPDAFVQLALQLAHYKDMGKFCLTYEASMTRLFREGRTETVRSCTTESCDFVRAMVDPAQTVEQRLKLFKLASEKHQHMYRLAMTGSGIDRHLFCLYVVSKYLAVESPFLKEVLSEPWRLSTSQTPQQQVELFDLENNPEYVSSGGGFGPVADDGYGVSYILVGENLINFHISSKFSCPETDSHRFGRHLKEAMTDIITLFGLSSNSKK
modifications: full-length
Take B1: the “Ratio of expression Cond. CDLs/Cond. Ghosts” value came out at 2% and the “Ratio of expression Cond Ghosts/Ghosts” value was 142%.

B2: O14773 (protein, UniProt O14773 1-563, looked up)
chain: MGLQACLLGLFALILSGKCSYSPEPDQRRTLPPGWVSLGRADPEEELSLTFALRQQNVERLSELVQAVSDPSSPQYGKYLTLENVADLVRPSPLTLHTVQKWLLAAGAQKCHSVITQDFLTCWLSIRQAELLLPGAEFHHYVGGPTETHVVRSPHPYQLPQALAPHVDFVGGLHRFPPTSSLRQRPEPQVTGTVGLHLGVTPSVIRKRYNLTSQDVGSGTSNNSQACAQFLEQYFHDSDLAQFMRLFGGNFAHQASVARVVGQQGRGRAGIEASLDVQYLMSAGANISTWVYSSPGRHEGQEPFLQWLMLLSNESALPHVHTVSYGDDEDSLSSAYIQRVNTELMKAAARGLTLLFASGDSGAGCWSVSGRHQFRPTFPASSPYVTTVGGTSFQEPFLITNEIVDYISGGGFSNVFPRPSYQEEAVTKFLSSSPHLPPSSYFNASGRAYPDVAALSDGYWVVSNRVPIPWVSGTSASTPVFGGILSLINEHRILSGRPPLGFLNPRLYQQHGAGLFDVTRGCHESCLDEEVEGQGFCSGPGWDPVTGWGTPNFPALLKTLLNP
modifications: full-length
B2: the “Ratio of expression Cond. CDLs/Cond. Ghosts” value was 6% and the “Ratio of expression Cond Ghosts/Ghosts” value came to 129%.

B3: P46977 (protein, UniProt P46977 1-705, looked up)
chain: MTKFGFLRLSYEKQDTLLKLLILSMAAVLSFSTRLFAVLRFESVIHEFDPYFNYRTTRFLAEEGFYKFHNWFDDRAWYPLGRIIGGTIYPGLMITSAAIYHVLHFFHITIDIRNVCVFLAPLFSSFTTIVTYHLTKELKDAGAGLLAAAMIAVVPGYISRSVAGSYDNEGIAIFCMLLTYYMWIKAVKTGSICWAAKCALAYFYMVSSWGGYVFLINLIPLHVLVLMLTGRFSHRIYVAYCTVYCLGTILSMQISFVGFQPVLSSEHMAAFGVFGLCQIHAFVDYLRSKLNPQQFEVLFRSVISLVGFVLLTVGALLMLTGKISPWTGRFYSLLDPSYAKNNIPIIASVSEHQPTTWSSYYFDLQLLVFMFPVGLYYCFSNLSDARIFIIMYGVTSMYFSAVMVRLMLVLAPVMCILSGIGVSQVLSTYMKNLDISRPDKKSKKQQDSTYPIKNEVASGMILVMAFFLITYTFHSTWVTSEAYSSPSIVLSARGGDGSRIIFDDFREAYYWLRHNTPEDAKVMSWWDYGYQITAMANRTILVDNNTWNNTHISRVGQAMASTEEKAYEIMRELDVSYVLVIFGGLTGYSSDDINKFLWMVRIGGSTDTGKHIKENDYYTPTGEFRVDREGSPVLLNCLMYKMCYYRFGQVYTEAKRPPGFDRVRNAEIGNKDFELDVLEEAYTTEHWLVRIYKVKDLDNRGLSRT
modifications: full-length
For the molecule B3, the “Ratio of expression Cond. CDLs/Cond. Ghosts” value turned out to be 3% and the “Ratio of expression Cond Ghosts/Ghosts” value is listed as 138%.

B4: O95782 (protein, UniProt O95782 1-977, looked up)
chain: MPAVSKGDGMRGLAVFISDIRNCKSKEAEIKRINKELANIRSKFKGDKALDGYSKKKYVCKLLFIFLLGHDIDFGHMEAVNLLSSNKYTEKQIGYLFISVLVNSNSELIRLINNAIKNDLASRNPTFMCLALHCIANVGSREMGEAFAADIPRILVAGDSMDSVKQSAALCLLRLYKASPDLVPMGEWTARVVHLLNDQHMGVVTAAVSLITCLCKKNPDDFKTCVSLAVSRLSRIVSSASTDLQDYTYYFVPAPWLSVKLLRLLQCYPPPEDAAVKGRLVECLETVLNKAQEPPKSKKVQHSNAKNAILFETISLIIHYDSEPNLLVRACNQLGQFLQHRETNLRYLALESMCTLASSEFSHEAVKTHIDTVINALKTERDVSVRQRAADLLYAMCDRSNAKQIVSEMLRYLETADYAIREEIVLKVAILAEKYAVDYSWYVDTILNLIRIAGDYVSEEVWYRVLQIVTNRDDVQGYAAKTVFEALQAPACHENMVKVGGYILGEFGNLIAGDPRSSPPVQFSLLHSKFHLCSVATRALLLSTYIKFINLFPETKATIQGVLRAGSQLRNADVELQQRAVEYLTLSSVASTDVLATVLEEMPPFPERESSILAKLKRKKGPGAGSALDDGRRDPSSNDINGGMEPTPSTVSTPSPSADLLGLRAAPPPAAPPASAGAGNLLVDVFDGPAAQPSLGPTPEEAFLSELEPPAPESPMALLADPAPAADPGPEDIGPPIPEADELLNKFVCKNNGVLFENQLLQIGVKSEFRQNLGRMYLFYGNKTSVQFQNFSPTVVHPGDLQTQLAVQTKRVAAQVDGGAQVQQVLNIECLRDFLTPPLLSVRFRYGGAPQALTLKLPVTINKFFQPTEMAAQDFFQRWKQLSLPQQEAQKIFKANHPMDAEVTKAKLLGFGSALLDNVDPNPENFVGAGIIQTKALQVGCLLRLEPNAQAQMYRLTLRTSKEPVSRHLCELLAQQF
modifications: full-length
Consider B4, for which the “Ratio of expression Cond. CDLs/Cond. Ghosts” value came out at 5% and the “Ratio of expression Cond Ghosts/Ghosts” value turned out to be 142%.

B5: O00159 (protein, UniProt O00159 1-1063, looked up)
chain: MALQVELVPTGEIIRVVHPHRPCKLALGSDGVRVTMESALTARDRVGVQDFVLLENFTSEAAFIENLRRRFRENLIYTYIGPVLVSVNPYRDLQIYSRQHMERYRGVSFYEVPPHLFAVADTVYRALRTERRDQAVMISGESGAGKTEATKRLLQFYAETCPAPERGGAVRDRLLQSNPVLEAFGNAKTLRNDNSSRFGKYMDVQFDFKGAPVGGHILSYLLEKSRVVHQNHGERNFHIFYQLLEGGEEETLRRLGLERNPQSYLYLVKGQCAKVSSINDKSDWKVVRKALTVIDFTEDEVEDLLSIVASVLHLGNIHFAANEESNAQVTTENQLKYLTRLLSVEGSTLREALTHRKIIAKGEELLSPLNLEQAAYARDALAKAVYSRTFTWLVGKINRSLASKDVESPSWRSTTVLGLLDIYGFEVFQHNSFEQFCINYCNEKLQQLFIELTLKSEQEEYEAEGIAWEPVQYFNNKIICDLVEEKFKGIISILDEECLRPGEATDLTFLEKLEDTVKHHPHFLTHKLADQRTRKSLGRGEFRLLHYAGEVTYSVTGFLDKNNDLLFRNLKETMCSSKNPIMSQCFDRSELSDKKRPETVATQFKMSLLQLVEILQSKEPAYVRCIKPNDAKQPGRFDEVLIRHQVKYLGLLENLRVRRAGFAYRRKYEAFLQRYKSLCPETWPTWAGRPQDGVAVLVRHLGYKPEEYKMGRTKIFIRFPKTLFATEDALEVRRQSLATKIQAAWRGFHWRQKFLRVKRSAICIQSWWRGTLGRRKAAKRKWAAQTIRRLIRGFVLRHAPRCPENAFFLDHVRTSFLLNLRRQLPQNVLDTSWPTPPPALREASELLRELCIKNMVWKYCRSISPEWKQQLQQKAVASEIFKGKKDNYPQSVPRLFISTRLGTDEISPRVLQALGSEPIQYAVPVVKYDRKGYKPRSRQLLLTPNAVVIVEDAKVKQRIDYANLTGISVSSLSDSLFVLHVQRADNKQKGDVVLQSDHVIETLTKTALSANRVNSININQGSITFAGGPGRDGTIDFTPGSELLITKAKNGHLAVVAPRLNSR
modifications: full-length
Take B5: the “Ratio of expression Cond. CDLs/Cond. Ghosts” value worked out at 4% and the “Ratio of expression Cond Ghosts/Ghosts” value turned out to be 129%.

B6: P10620 (protein, UniProt P10620 1-155, looked up)
chain: MVDLTQVMDDEVFMAFASYATIILSKMMLMSTATAFYRLTRKVFANPEDCVAFGKGENAKKYLRTDDRVERVRRAHLNDLENIIPFLGIGLLYSLSGPDPSTAILHFRLFVGARIYHTIAYLTPLPQPNRALSFFVGYGVTLSMAYRLLKSKLYL
modifications: full-length
Regarding B6, the “Ratio of expression Cond. CDLs/Cond. Ghosts” value turned out to be 3% and the “Ratio of expression Cond Ghosts/Ghosts” value is listed as 128%.

B7: Q12797 (protein, UniProt Q12797 1-758, looked up)
chain: MAQRKNAKSSGNSSSSGSGSGSTSAGSSSPGARRETKHGGHKNGRKGGLSGTSFFTWFMVIALLGVWTSVAVVWFDLVDYEEVLGKLGIYDADGDGDFDVDDAKVLLGLKERSTSEPAVPPEEAEPHTEPEEQVPVEAEPQNIEDEAKEQIQSLLHEMVHAEHVEGEDLQQEDGPTGEPQQEDDEFLMATDVDDRFETLEPEVSHEETEHSYHVEETVSQDCNQDMEEMMSEQENPDSSEPVVEDERLHHDTDDVTYQVYEEQAVYEPLENEGIEITEVTAPPEDNPVEDSQVIVEEVSIFPVEEQQEVPPETNRKTDDPEQKAKVKKKKPKLLNKFDKTIKAELDAAEKLRKRGKIEEAVNAFKELVRKYPQSPRARYGKAQCEDDLAEKRRSNEVLRGAIETYQEVASLPDVPADLLKLSLKRRSDRQQFLGHMRGSLLTLQRLVQLFPNDTSLKNDLGVGYLLIGDNDNAKKVYEEVLSVTPNDGFAKVHYGFILKAQNKIAESIPYLKEGIESGDPGTDDGRFYFHLGDAMQRVGNKEAYKWYELGHKRGHFASVWQRSLYNVNGLKAQPWWTPKETGYTELVKSLERNWKLIRDEGLAVMDKAKGLFLPEDENLREKGDWSQFTLWQQGRRNENACKGAPKTCTLLEKFPETTGCRRGQIKYSIMHPGTHVWPHTGPTNCRLRMHLGLVIPKEGCKIRCANETKTWEEGKVLIFDDSFEHEVWQDASSFRLIFIVDVWHPELTPQQRRSLPAI
modifications: full-length
B7: the “Ratio of expression Cond. CDLs/Cond. Ghosts” value came to 5% and the “Ratio of expression Cond Ghosts/Ghosts” value was 135%.
